In article PMC9226670:
No constants are given. Whether binding was seen depends on the method and setting. Binding seen in cells or lysates may run through a third protein. Binding can be weak; no strength is given.

Sequences of proteins named here, by UniProt entry; tags and fusion partners are left off.
UniProt Q99J83: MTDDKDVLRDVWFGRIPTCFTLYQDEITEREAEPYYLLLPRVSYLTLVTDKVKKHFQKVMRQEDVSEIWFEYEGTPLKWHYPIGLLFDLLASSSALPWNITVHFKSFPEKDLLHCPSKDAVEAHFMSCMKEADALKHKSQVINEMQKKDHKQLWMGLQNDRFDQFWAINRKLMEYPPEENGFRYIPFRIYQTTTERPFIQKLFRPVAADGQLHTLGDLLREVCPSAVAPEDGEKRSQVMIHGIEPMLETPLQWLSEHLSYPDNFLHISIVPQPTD
UniProt Q9CPX6: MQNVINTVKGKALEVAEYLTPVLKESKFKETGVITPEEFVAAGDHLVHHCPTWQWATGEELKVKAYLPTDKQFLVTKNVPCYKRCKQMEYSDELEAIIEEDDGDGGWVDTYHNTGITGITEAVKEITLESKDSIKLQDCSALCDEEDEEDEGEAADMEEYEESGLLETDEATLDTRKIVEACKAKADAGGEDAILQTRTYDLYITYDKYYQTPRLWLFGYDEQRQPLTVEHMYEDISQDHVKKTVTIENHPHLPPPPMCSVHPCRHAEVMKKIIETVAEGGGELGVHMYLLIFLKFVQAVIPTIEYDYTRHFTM

Columns and labels:
[1] = target: Atg5 (endogenous, mouse macrophage RAW264.7) (mouse (endogenous in RAW264.7)) (UniProt Q99J83); assay: co-IP; RAW264.7 cells infected with ME49wt or ME49Δcdpk3 parasites (MOI 3), 4 h after infection; polyclonal anti-Atg3, anti-Atg5 or anti-Atg7 antibodies precipitate the host protein; blot with rabbit polyclonal CDPK3 antibody; lysis buffer 50 mM HEPES pH 7.4, 150 mM NaCl, 2 mM EGTA, 1% Triton X-100
[2] = target: Atg3 (endogenous, mouse macrophage RAW264.7) (mouse (endogenous in RAW264.7)) (UniProt Q9CPX6); assay: as above

Q: Which binding [1] does the source give for “CDPK3 from the ME49wt parasite (endogenous Toxoplasma gondii CDPK3) (from UniProt A0A125YQG4) (enzyme)” here?
A: binds

Q: And the binding [2]?
A: binds
